Measurements as given in the supplement of paper PMC9254222.
Whole data set: some 1,100 compounds, median “Wnt reporter firefly/Renilla luciferase ratio relative to plate median” near 1.1, cut for the highest 2% near 1.6. The entries are a selection whose mix differs from that of the whole data set.

Tested on: HEK293T (UBE3A T485A transfected, BAR Wnt reporter)
Assay: Wnt reporter firefly/Renilla luciferase ratio relative to plate median (fold (linear ratio)); higher = more Wnt/beta-catenin reporter activation
Conditions: 24 h
Procedure, shortened: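 HEK293T cells were grown in DMEM with 10% FBS at 37°C and 5% CO2, at 4500 cells/well in white 384-well plates. They were transfected with a BAR firefly luciferase Wnt reporter, TK-Renilla and an expression plasmid using Fugene 6. Four hours later, robots dosed the chemicals at 0.01–100 uM for 24 h, followed by Dual-Glo luciferase readout. Wnt activity (firefly/Renilla ratio) and cell health (raw Renilla) were median-centred per plate, averaged over four biological replicates.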

| Compound | Wnt reporter firefly/Renilla luciferase ratio (concentration: 0.1 uM) | Wnt reporter firefly/Renilla luciferase ratio (concentration: 1 uM) | Wnt reporter firefly/Renilla luciferase ratio (concentration: 10 uM) | Wnt reporter firefly/Renilla luciferase ratio (concentration: 100 uM) | Wnt reporter firefly/Renilla luciferase ratio (concentration: 0.01 uM) |
| --- | --- | --- | --- | --- | --- |
| N[C@@H](Cc1cc(I)c(Oc2ccc(O)c(I)c2)c(I)c1)C(=O)O [3,5,3'-Triiodothyronine] | 1.17 | 1.11 | 1.03 | 0.213 |  |
| N#C[C@@H]1CC(F)(F)CN1C(=O)CNC1CC2CCC(C1)N2c1ncccn1 (stereo partly drawn) | 0.985 | 0.923 | 0.937 | 0.82 |  |
| C=CCc1cc(S(=O)(=O)c2ccc(O)c(CC=C)c2)ccc1O [4,4'-Sulfonylbis[2-(prop-2-en-1-yl)phenol]] | 0.923 | 0.862 | 0.653 |  |  |
| c1ccc2c(c1)ccc1ccccc12 [Phenanthrene] | 0.724 | 0.903 | 1.02 | 0.9 |  |
| O=C1O[C@H]([C@H](O)CO)C([O-])=C1O.[Na+] [Sodium erythorbate (1:1)] | 1.15 | 0.879 | 1.09 | 1.2 |  |
| O=C1CCCCCN1 [Caprolactam] | 1.06 | 1.09 | 1.04 | 0.937 |  |
| CCCC(=O)O [Butanoic acid] |  |  |  | 1.62 |  |
| CCCCCCCCCCCCCCCCCC(=O)O [Octadecanoic acid] | 1.04 | 0.891 | 1.03 | 1.23 |  |
| CCCCCCOC(=O)C1(O)CC2OC1(C)n1c3ccccc3c3c4c(c5c6ccccc6n2c5c31)C(=O)NC4 (stereo not drawn) | 1.43 | 0.996 | 1.15 | 0.584 | 1.55 |
| O=C([O-])c1ccc2c(c1)nc(C(=O)NC1CCN(C3CC3)CC1)n2Cc1cc(-c2ccc(Cl)s2)on1.[Na+] | 0.874 | 1.09 | 0.986 | 1.08 |  |
| O=C(O)c1cccc(N(Cc2cccnc2)c2ccc(OC(F)F)c(OC(F)F)c2)c1 | 0.79 | 0.645 | 0.499 | 0.103 |  |
| CC1(C)CC(N=C=O)CC(C)(CN=C=O)C1 (stereo not drawn) [Isophorone diisocyanate] | 1.08 | 1.11 | 1.02 | 0.933 |  |
| Oc1cccc(O)c1 [Resorcinol] | 1.09 | 1.23 | 1.13 | 1.34 |  |
| C1CCC(SSC2CCCCC2)CC1 [Dicyclohexyl disulfide] | 0.41 | 0.847 | 0.589 | 0.879 |  |
| COc1ccc(-c2ccc(=N)n(CCCC(=O)O)n2)cc1 | 0.879 | 1.04 | 0.861 | 1.43 | 0.802 |
| CCC(C)(C)C1CCC(O)CC1 (stereo not drawn) [4-(2-Methylbutan-2-yl)cyclohexanol] | 1.08 | 1.21 | 0.956 | 0.821 |  |

| Compound | Wnt reporter firefly/Renilla luciferase ratio (concentration: 0.1 uM) | Wnt reporter firefly/Renilla luciferase ratio (concentration: 1 uM) | Wnt reporter firefly/Renilla luciferase ratio (concentration: 10 uM) | Wnt reporter firefly/Renilla luciferase ratio (concentration: 100 uM) | Wnt reporter firefly/Renilla luciferase ratio (concentration: 0.01 uM) |
| --- | --- | --- | --- | --- | --- |
| CC1=CC(=O)/C(=C(/C)[O-])C(=O)O1.[Na+] [Sodium dehydroacetate] | 0.92 | 0.935 | 1.12 | 1.05 |  |
| NS(=O)(=O)c1cc2c(cc1Cl)NCNS2(=O)=O [Hydrochlorothiazide] | 1.41 | 1.17 | 1.12 | 1.32 |  |
| Cc1ncc([C@@H](CCCCCCc2ccc3c(n2)NCCC3)CC(=O)O)cn1 | 1.25 | 1.42 | 1.78 | 1.55 |  |
| CCC(=C(c1ccc(O)cc1)c1ccc(OCCN(C)C)cc1)c1ccccc1 [4-Hydroxytamoxifen] | 1.36 | 1.16 | 0.795 |  |  |
| Oc1ccccc1 [Phenol] | 0.93 | 1.28 | 1.19 | 1.35 |  |
| CCSC(=O)N(CC(C)C)CC(C)C [Butylate] |  |  | 1.71 |  |  |
| CS(=O)(=O)c1ccc([C@@H](C[C@H]2CCC(=O)C2)C(=O)Nc2cnccn2)cc1Cl [Piragliatin] | 1.03 | 0.959 | 1.02 | 1.3 |  |
| c1ccc2c(c1)Cc1ccccc1-2 [Fluorene] | 1.18 | 1.07 | 1.28 | 1.41 |  |
| Cc1oc(-c2ccccc2)nc1CCOc1cccc2c1ccn2CCC(=O)O | 1.12 | 1.17 | 1.05 | 0.757 |  |
| CCCCCCCCCCCC(=O)OC [Methyl dodecanoate] | 1.12 | 1.02 | 1.13 | 1.38 |  |
| Fc1ccccc1[C@@H](F)CO[C@H]1CC[C@H](Nc2[nH]cnc3nncc2-3)CC1 | 1.04 | 1.08 | 0.826 | 0.32 |  |
| CCCCc1oc2ccccc2c1C(=O)c1cc(I)c(OCCN(CC)CC)c(I)c1.Cl [Amiodarone hydrochloride] | 1.18 | 1.09 | 1 | 1.11 |  |
| CC(C)CCO [Isopentyl alcohol] | 1.15 | 0.978 | 1.1 | 1.03 |  |
| CC(C)CCCCCCOC(=O)CCCCC(=O)OCCCCCCC(C)C [Hexanedioic acid, diisononyl ester] | 0.869 | 0.964 | 1.24 | 1.25 |  |
| O=C([N-]S(=O)(=O)/C=C/c1ccccc1)c1ccc(F)cc1Cl.[Na+] | 1.15 | 1.07 | 0.657 | 0.3 |  |

Full records from above:
COc1ccc(-c2ccc(=N)n(CCCC(=O)O)n2)cc1 as listed: Wnt reporter firefly/Renilla luciferase ratio (concentration: 0.1 uM): 0.879; Wnt reporter firefly/Renilla luciferase ratio (concentration: 1 uM): 1.04; Wnt reporter firefly/Renilla luciferase ratio (concentration: 10 uM): 0.861; Wnt reporter firefly/Renilla luciferase ratio (concentration: 100 uM): 1.43; Wnt reporter firefly/Renilla luciferase ratio (concentration: 0.01 uM): 0.802
CCC(=C(c1ccc(O)cc1)c1ccc(OCCN(C)C)cc1)c1ccccc1 [4-Hydroxytamoxifen] as listed: Wnt reporter firefly/Renilla luciferase ratio (concentration: 0.1 uM): 1.36; Wnt reporter firefly/Renilla luciferase ratio (concentration: 1 uM): 1.16; Wnt reporter firefly/Renilla luciferase ratio (concentration: 10 uM): 0.795
